For the series, the system named is Streptococcus agalactiae NEM316. In words: Final OD600 of Streptococcus agalactiae cultures after one hour of inducer treatment. It counts as cell-based.
Setting [1] is: BHI-Tris-glucose, aerated, 1 μM.
[2] abbreviates: BHI-Tris-glucose, aerated, 10 μM.
Setting [3] is: BHI-Tris-glucose, non-aerated, 1 μM.
Setting [4] is: BHI-Tris-glucose, non-aerated, 10 μM.
The mark [5] stands for this setting: M17-glucose, non-aerated, 10 μM.

This note sets out measurements from patent publication US20140120577A1, “Metalloporphyrin Inducible Promoter” (CHR HANSEN A/S, priority 2011, published 2014).

With `C=CC1=C(C)C2=[N+]3C1=Cc1c(C)c(C=C)c4[n]1[Ga-]31[n]3c(c(C)c(CCC(=O)O)c3=CC3=[N+]1C(=C4)C(C)=C3CCC(=O)O)=C2` (stereo not shown) [Ga-PPIX, gallium-protoporphyrin IX], the “final OD600” value reads like this: under setting [1], 0.5; under setting [2], 0.5; under setting [3], 0.4; under setting [4], 0.4; (M17-glucose, aerated, 1 μM) 0.8; (M17-glucose, aerated, 10 μM) 0.8. The “final OD600” value came to 0.8 (M17-glucose, non-aerated, 1 μM) and 0.8 under setting [5].

Regarding `C=CC1=C(C)c2cc3[n-]c(cc4[n-]c(cc5nc(cc1n2)C(C)=C5C=C)c(C)c4CCC(=O)O)c(CCC(=O)O)c3C.[Cl-].[Fe+3]` [hemin], the “final OD600” value under setting [1] is given as 0.4; the “final OD600” value under setting [2] was determined as 0.4; the “final OD600” value under setting [3] was found to be 0.4; the “final OD600” value under setting [4] was found to be 0.4; the “final OD600” value (M17-glucose, aerated, 1 μM) came out at 0.6; the “final OD600” value (M17-glucose, aerated, 10 μM) stood at 0.5. Moreover, the “final OD600” value runs as follows: (M17-glucose, non-aerated, 1 μM) 0.8; under setting [5], 0.8.
